PubChem BioAssay AID504793, Drosophila RNAi Screening Center, 2011
Purpose: 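Genes required for cells to halt at G2/M after double-strand DNA breaks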 (primary screen). Cells: Drosophila S2R+ cells. Reagents: long dsRNA against Drosophila genes, about 0.25 µg dsRNA per well. Duration: 4 days of dsRNA, then 4 hours of drug before read-out. Treatment: doxorubicin 0.5 µM for 4 hours to cause double-strand breaks, in cells also given a low, harmless dose of dsRNA against nbs to sensitise the assay. Detection: 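Mitotic index as the number of phospho-histone H3-positive cells in each well following doxorubicin, given as raw counts without normalisation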. Scale: mitotic cells: higher = more cells in mitosis, weaker G2 arrest. Hit rule: 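a call needs confirmation in secondary tests, with other dsRNAs and a check of mitotic timing without damage, not just a high primary count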. Calls: active = confirmed in follow-up tests; inactive = not confirmed.
The deposit covers about 23,000 reagents; this is an unselected part of those that have a named target and a result. Of all reagents, 62 (0.27%) were called active. 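Calls come from follow-up tests whose scores are not deposited, so confirmed genes may have low counts here; counts are not normalised per plate.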 Raw values vary from plate to plate and are shown uncorrected. Names joined by + are all predicted targets of the reagent. Reagent sequences are not shown.

Hs3st-A [DRSC06508] | mitotic cells, replicate 1 = 11; Outcome = inactive
Hs3st-A [DRSC06509] | mitotic cells, replicate 1 = 12; Outcome = inactive
Hs3st-A [DRSC30014] | mitotic cells, replicate 1 = 16; Outcome = inactive
CG1236 [DRSC12203] | mitotic cells, replicate 1 = 8; Outcome = inactive
CG12935 + Nop10 [DRSC07025] | mitotic cells, replicate 1 = 7; Outcome = inactive
CG15403 [DRSC00417] | mitotic cells, replicate 1 = 3; Outcome = inactive

The list goes on, starting with the last 2 of the part before.
CG12935 + Nop10 [DRSC07025] | mitotic cells, replicate 1 = 7; Outcome = inactive
CG15403 [DRSC00417] | mitotic cells, replicate 1 = 3; Outcome = inactive
Lac [DRSC07452] | mitotic cells, replicate 1 = 6; Outcome = inactive
snky [DRSC09838] | mitotic cells, replicate 1 = 9; Outcome = inactive
Ir87a [DRSC14836] | mitotic cells, replicate 1 = 3; Outcome = inactive
Ir87a [DRSC27649] | mitotic cells, replicate 1 = 8; Outcome = inactive
Cpr62Bc [DRSC08545] | mitotic cells, replicate 1 = 4; Outcome = inactive
Cpr62Bc [DRSC26471] | mitotic cells, replicate 1 = 1; Outcome = inactive
CG31327 [DRSC13019] | mitotic cells, replicate 1 = 1; Outcome = inactive
speck [DRSC04608] | mitotic cells, replicate 1 = 3; Outcome = inactive
speck [DRSC27654] | mitotic cells, replicate 1 = 7; Outcome = inactive
